The target in the assay is Caci_0382 from Catenulispora acidiphila DSM 44928 (Catenulispora acidiphila DSM 44928) (UniProt C7PVH9). The assay is described as follows: crystal structure; two crystal forms: apo-form (P61, 1.15 Å) and complex with trimethylamine (P21, 1.95 Å); two protomers per asymmetric unit, related by a twofold axis; both purified.

This is an account of results in PMC3955178, “Structural characterization of a hypothetical protein: a potential agent involved in trimethylamine metabolism in Catenulispora acidiphila” (Journal of Structural and Functional Genomics, 2014).

No constants are given. Whether binding was seen depends on the method and setting. Some entries that bind do so weakly or less than the wild type.

B1: Caci_0382 from Catenulispora acidiphila DSM 44928 (natural protein)
chain: MTTPEIVTAWAAAWTGTNPNALGTLFAADGTYVDHAIGATMTGREQISGWKARTDAMIENVHVTITKAYRAGDHVTIEAVYGGHIKGAPTPFAVPMATLLRTRGEEITSDQDYYSLSSVLAQSGLPADWTPSDS
modifications: selenomethionine-labeled
notes: Caci_0382, hypothetical protein of the NTF2-like family, Catenulispora acidiphila DSM 44928; the gene encodes a 134 amino-acid protein of 14.3 kDa; Subcloned in the pMCSG57 vector, which adds a 6 His-Tag at the N-terminus; 131 Calpha atoms per subunit were aligned between the two crystal forms; also called hypothetical protein Caci_0382
For B1, the binding entry is on record as “binds”.
